The whole screen tested about 400,000 compounds, of which about 13,000 (3.2%) were called active. Inconclusive means that the source gave no clear call. Such entries were picked first, then a sample of the others. Calls follow the shape of the dose curve; as a rule, active = well fitted cell-killing curve with a large enough effect; inconclusive = small, poorly fitted or top-dose-only effect, or effect the other way; inactive = flat fitted curve, though single readings scatter. Potencies of inconclusive entries are doubtful fits and often do not repeat.
Assay: qHTS assay for MDR1-selective chemotherapeutics: Primary screen using the drug-selected MDR subline cells KB-V1; also: nearly all actives have a fitted effect of over 60% in size
Settings: KB-V1 MDR cells viability, CellTiter-Glo, 72 h; activity change, negative = cytotoxicity: at 46.1 µM (top of the series)
Summary of the method: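 qHTS viability screen in drug-selected KB-V1 MDR cells: 72 h compound treatment at 37 degrees C, ATP luminescence end point.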
% is scaled to controls: 0 for no effect and ±100 for the full control effect; potency is read from the fitted curve at half-maximal effect.

SMILES	Potency	activity change, negative = cytotoxicity
Cc1ccc(-c2nn3c(C)nnc3s2)cc1NC(=O)c1ccc(Br)o1	inactive	–
CCCc1nn2c(=O)cc(COc3ccc(/C=C(\C#N)C(=O)Nc4ccccc4)cc3)nc2s1	inconclusive: 29.1 µM [rising, single point]	–
CC(C)C(C)NC(=O)CN1C(=O)NC2(CCc3ccccc32)C1=O (centres undefined)	inactive	–
O=C(CSCc1cccc(Cl)c1)NCc1ccc2c(c1)OCO2	inconclusive: 18.4 µM [cytotoxic, single point]	–
CCOc1ccc(NC(=O)CCc2ccc(C)o2)cc1	inconclusive: 7.31 µM [rising, partial curve, poor fit]	–
COc1ccc(CCNC(=O)C2CCCN(S(=O)(=O)N3CC(C)CC(C)C3)C2)cc1OC (centres undefined)	inconclusive: 7.31 µM [cytotoxic, partial curve, poor fit]	–
CCCCNC(=O)CN(c1cc(C(F)(F)F)ccc1Cl)S(C)(=O)=O	inconclusive: 16.4 µM [cytotoxic, partial curve, poor fit]	–
CN(CCCNC(=O)c1cccn2c(=O)c3ccccc3nc12)Cc1ccccc1	inconclusive: 29.1 µM [cytotoxic, single point]	–
O=C1NC(=O)/C(=C\c2ccc(O)cc2O)S1	inconclusive: 20.6 µM [cytotoxic, single point]	–
COc1cc(C2c3c(-c4ccccc4O)n[nH]c3C(=O)N2Cc2ccco2)ccc1OCC(C)C (centres undefined)	inconclusive: 18.4 µM [cytotoxic, partial curve, poor fit]	–
COc1ccc(CNC(=S)NCc2ccc(OC)cc2)cc1	inactive	–
N#Cc1ccc(COC(=O)CSc2nnc(N)s2)cc1	inconclusive: 29.1 µM [rising, single point]	–
COc1ccc(CN2C[C@@H](CO)O[C@@H](n3cnc4c(NC5CC5)ncnc43)C2)cc1	inactive	–
Cc1cc(NC(=O)/C=C/c2ccccc2Cl)n(-c2nc3ccccc3[nH]2)n1	inconclusive: 7.31 µM [cytotoxic, partial curve, poor fit]	–
O=C(Cn1ncc2ccsc2c1=O)N1CCN(c2ccccc2F)CC1	inactive	–
COc1ccc(C(NC(C)=O)c2ccc3cccnc3c2O)cc1OC (centres undefined)	inactive	–
Cc1cc(NC(=O)c2cc([N+](=O)[O-])ccc2Cl)no1	inconclusive: 16.4 µM [cytotoxic, single point]	–
COCCC(=O)N1CCC(Oc2ccc(C(=O)NC3Cc4ccccc4C3)cc2)CC1	active: 4.11 µM	–
CC(/C=C\c1cccnc1)=C/C(=O)O	inconclusive: 18.4 µM [rising, single point]	–
O=C1c2cccc3cccc(c23)C(=O)N1c1nncs1	inconclusive: 10.3 µM [rising, partial curve]	–
Cc1ccccc1-n1ncc2c1CC(C)(C)CC2NC(=O)CSc1ccncc1 (centres undefined)	inconclusive: 7.31 µM [cytotoxic, partial curve, poor fit]	–
CCCN(CC(=O)Nc1ccccc1C)C(=O)c1cccc(S(=O)(=O)N2CCN(c3ccccc3)CC2)c1	inconclusive: 6.51 µM [cytotoxic, full curve]	–
Cc1cccc(N2CCN(C(=O)CC(NC(=O)c3ccccc3)c3ccccc3)CC2C)c1 (centres undefined)	active: 3.66 µM	–

SMILES	Potency	activity change, negative = cytotoxicity
COc1ccc(CCNC(=O)COC(=O)c2cnccn2)cc1	inconclusive: 1.46 µM [rising, full curve, poor fit]	–
CCOC(=O)C(CC)n1cnc2c(nnn2-c2ccc(F)cc2)c1=O (centres undefined)	inactive	–
COc1ccc(OC)c(S(=O)(=O)N2CCC(C(=O)Nc3cccc(C)c3)CC2)c1	inconclusive: 20.6 µM [cytotoxic, single point]	–
Cc1cc(C)n2nc(-c3ccc(F)cc3)cc2n1	inconclusive: 20.6 µM [cytotoxic, single point]	–
Cc1ccc2cccc(OC(=O)c3ccc4c(c3)OCCO4)c2n1	inactive	–
Cc1ccc(-n2ncc3c(=O)n(Cc4ccccn4)cnc32)cc1C	inconclusive: 29.1 µM [cytotoxic, single point]	–
O=C(Nc1ccc(Cl)cc1)Nc1ccccc1C(=O)O	inactive	–
Oc1ccccc1C(Nc1nccs1)c1ccc2cccnc2c1O (centres undefined)	active: 11.6 µM	–
Cc1cccc(N2CCN(C(=O)c3cc(C)oc3C)CC2C)c1 (centres undefined)	active: 14.6 µM	–
COc1ccc(Nc2nccc(-c3cccc(N)c3)n2)cc1	inconclusive: 25.9 µM [cytotoxic, partial curve, poor fit]	–
CCN(CCNc1ccc(Cl)cc1[N+](=O)[O-])C(=O)c1cc([N+](=O)[O-])c(N(C)C)cc1OC	inconclusive: 2.91 µM [cytotoxic, partial curve]	–
O=C(CN1CCSc2ccccc21)N1CCN(c2ccc(F)cc2)CC1	inconclusive: 13 µM [cytotoxic, partial curve]	–
CCc1c(N=O)c(-c2ccccc2)n(O)[n+]1[O-]	inconclusive: 29.1 µM [rising, single point]	–
OC1COC(c2ccccc2)OC1C(O)C1OC(c2ccccc2)OCC1O (centres undefined)	inconclusive: 29.1 µM [rising, single point]	–
O=C(Nc1ccccc1F)c1cc(S(=O)(=O)N2CCCCC2)cs1	inconclusive: 16.4 µM [cytotoxic, single point]	–
CCOC(=O)N1CCC(NC(=O)c2cc3sccc3n2CC)CC1	active: 23.1 µM	–
CCCOc1ccc(OCCOCCN2CCc3ccccc3C2)cc1	inconclusive: 16.4 µM [cytotoxic, partial curve, poor fit]	–
CCN(C(=O)Cn1c(Cl)nc2c1c(=O)n(C)c(=O)n2C)C1CCCCC1	inconclusive: 0.184 µM [cytotoxic, full curve, poor fit]	–
COc1ccc(C(=O)NNC(=O)C(=O)Nc2cccc3ccccc23)cc1	inconclusive: 14.6 µM [cytotoxic, single point]	–
CN(C(=O)c1ccncc1)C1CC(C)(C)N(O)C(C)(C)C1	inconclusive: 10.3 µM [rising, partial curve, poor fit]	–
CCOC(=O)N1CCC(N2C(=O)c3ccccc3C2Nc2ccc(S(=O)(=O)N(CC)CC)cc2)CC1 (centres undefined)	inconclusive: 18.4 µM [cytotoxic, partial curve, poor fit]	–
CCOC(=O)[C@]12CCC=C1N(Cc1ccccc1)C(=O)[C@H](CC(=O)NCCCCc1ccccc1)C2	inconclusive: 29.1 µM [cytotoxic, single point]	–
Cc1ccc(/C=C(\C#N)c2nn(-c3ccccc3)c(N)c2C#N)cc1	active: 20.6 µM	–

SMILES	Potency	activity change, negative = cytotoxicity
COc1ccc(-c2cc(-c3ccccc3)nc(N3CCCC3)n2)cc1OC	active: 8.2 µM	–
CCN(C(=O)COC(=O)c1ccc(OCc2c(C)noc2C)cc1)c1ccccc1	inactive	–
O=C(c1cccc2ccccc12)C1CCCN(C(=O)c2ccc(N3CCOCC3)cc2)C1 (centres undefined)	inconclusive: 5.17 µM [cytotoxic, partial curve]	–
O=C(c1cccn2c(=O)c3ccccc3nc12)N1CCN(c2ccccn2)CC1	active: 9.2 µM	–
COc1ccccc1N1CCN(C(=O)c2ccc(Cl)c(S(=O)(=O)NCc3ccco3)c2)CC1	active: 12.6 µM	–
CCCC(C)C(=O)Nc1ccc(S(N)(=O)=O)cc1 (centres undefined)	inconclusive: 7.31 µM [rising, full curve, poor fit]	–
Cc1ccc(CNC(=O)CC(C)S(=O)(=O)c2ccc3c(c2)NC(=O)CS3)o1 (centres undefined)	inactive	–
CC(=O)n1cc(N(C(=O)CCl)c2ccccc2)c2ccccc21	inconclusive: 29.1 µM [cytotoxic, single point]	–
Cc1cccc2[nH]c3c(N4CCN(C(=O)c5ccco5)CC4)ncnc3c12	inconclusive: 20.6 µM [cytotoxic, single point]	–
CC(=O)c1ccc(NC(=O)CCOc2ccccc2)cc1	inactive	–
C=CCn1c(SCC(=O)Nc2cccc(S(N)(=O)=O)c2)nnc1C1CCCCC1	inconclusive: 29.1 µM [rising, single point]	–
CNC(=S)N/N=C(\C)c1ccc(Cl)c(Cl)c1	inconclusive: 29.1 µM [cytotoxic, single point]	–
C/C(=N/NC(=O)c1ccc(C)nc1)c1ccc2c(c1)CCCC2	active: 10.3 µM	–
COC(=O)CN(c1ccc(C)cc1)S(=O)(=O)c1ccc2c(c1)n(C)c(=O)c(=O)n2C	inconclusive: 29.1 µM [rising, single point]	–
COc1cccc(/C(O)=C/c2nc3ccc(C(=O)NCCc4ccc(Cl)cc4)cc3[nH]c2=O)c1	inconclusive: 18.4 µM [cytotoxic, single point]	–
Cc1ccc(NC(=O)Cn2c(/C=C/c3ccccc3)nc3ccccc32)cc1C	inconclusive: 23.1 µM [cytotoxic, single point]	–
CCOC(=O)c1c(C)[nH]c(C)c1S(=O)(=O)NCC(=O)N1CCN(c2ccccc2OC)CC1	inactive	–
COc1cc([N+](=O)[O-])cc(/C=N/NC(=O)Cn2nc(C)cc2C)c1O	inconclusive: 16.4 µM [cytotoxic, single point]	–
C/C(=N\Nc1ccc([N+](=O)[O-])cc1)c1ccc(N)cc1	inconclusive: 29.1 µM [cytotoxic, single point]	–
COC(=O)c1cc2sc(Cl)cc2n1Cc1cc(C)ccc1C	inactive	–
O=C(CCC1CCN(C(=O)c2ccccc2Cl)CC1)NCc1ccc(F)cc1	inconclusive: 20.6 µM [cytotoxic, single point]	–
CCC(C)c1ccccc1NC(=O)COC(=O)c1ccc(C)c(NC(=O)c2ccco2)c1 (centres undefined)	–	inconclusive: -35.3% [cytotoxic]
O=C(/C=C\c1cccs1)c1c(O)ccc2ccc(=O)oc12	inactive	–

Entries from the list above with a Cl atom:
SMILES	Potency	activity change, negative = cytotoxicity
O=C(CSCc1cccc(Cl)c1)NCc1ccc2c(c1)OCO2	inconclusive: 18.4 µM [cytotoxic, single point]	–
CCCCNC(=O)CN(c1cc(C(F)(F)F)ccc1Cl)S(C)(=O)=O	inconclusive: 16.4 µM [cytotoxic, partial curve, poor fit]	–
Cc1cc(NC(=O)/C=C/c2ccccc2Cl)n(-c2nc3ccccc3[nH]2)n1	inconclusive: 7.31 µM [cytotoxic, partial curve, poor fit]	–
Cc1cc(NC(=O)c2cc([N+](=O)[O-])ccc2Cl)no1	inconclusive: 16.4 µM [cytotoxic, single point]	–
O=C(Nc1ccc(Cl)cc1)Nc1ccccc1C(=O)O	inactive	–
CCN(CCNc1ccc(Cl)cc1[N+](=O)[O-])C(=O)c1cc([N+](=O)[O-])c(N(C)C)cc1OC	inconclusive: 2.91 µM [cytotoxic, partial curve]	–
CCN(C(=O)Cn1c(Cl)nc2c1c(=O)n(C)c(=O)n2C)C1CCCCC1	inconclusive: 0.184 µM [cytotoxic, full curve, poor fit]	–
COc1ccccc1N1CCN(C(=O)c2ccc(Cl)c(S(=O)(=O)NCc3ccco3)c2)CC1	active: 12.6 µM	–
CC(=O)n1cc(N(C(=O)CCl)c2ccccc2)c2ccccc21	inconclusive: 29.1 µM [cytotoxic, single point]	–
CNC(=S)N/N=C(\C)c1ccc(Cl)c(Cl)c1	inconclusive: 29.1 µM [cytotoxic, single point]	–
COc1cccc(/C(O)=C/c2nc3ccc(C(=O)NCCc4ccc(Cl)cc4)cc3[nH]c2=O)c1	inconclusive: 18.4 µM [cytotoxic, single point]	–
COC(=O)c1cc2sc(Cl)cc2n1Cc1cc(C)ccc1C	inactive	–
O=C(CCC1CCN(C(=O)c2ccccc2Cl)CC1)NCc1ccc(F)cc1	inconclusive: 20.6 µM [cytotoxic, single point]	–

From PubChem BioAssay AID1347076 (National Center for Advancing Translational Sciences (NCATS), 2019)
